The record followed here is US9546381B2, “Use of anticoagulants in the production of recombinant proteins in the milk of transgenic animals” (priority 2010, dated 2017).

A short description of the data set: Amount of milk produced by warfarin-treated transgenic heifers. In kind it is in vivo, cattle. As to conditions: lines = day, warfarin started on day 1.

Where “and” joins values, the source holds several entries; their conditions need not be identical. Equal entries are not always repeated.

As for `CC(=O)CC(c1ccccc1)c1c(O)c2ccccc2oc1=O` (stereo not drawn) [warfarin], the Amount of milk by setting is: (heifer 462) 12 lbs and 13 lbs and 9.5 lbs and 14 lbs and 13.5 lbs; (heifer 463) 4 lbs and 4.5 lbs and 5 lbs and 5.5 lbs and 6 lbs and 6.5 lbs; (heifer 474) 9.5 lbs and 8 lbs and 9 lbs and 7.5 lbs and 8.5 lbs.
